The text below walks through data of publication PMC11226090.

Protein sequences, listed by entry. Tags and fused reporters are not part of them. Residues count along the entry.
UniProt O60602, residues 691-836: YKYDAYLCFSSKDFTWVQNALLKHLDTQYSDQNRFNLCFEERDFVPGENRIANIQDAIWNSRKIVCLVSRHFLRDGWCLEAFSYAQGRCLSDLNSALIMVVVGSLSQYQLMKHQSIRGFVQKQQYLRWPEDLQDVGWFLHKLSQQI

These are yes or no findings as the source states them, for the method shown. Some binding calls cover weakened binding; strength is not graded here. For some assays here: Sequences can lack the tags named with a protein.

Test [1] deals with TIR domain of human Toll-like receptor 5 (TLR5TIR), released from the MBP hybrid by thrombin (human) (UniProt O60602). Kind of test: SEC; gel filtration on Superdex 75i after thrombin cleavage of the MBP hybrid; 25 mM HEPES, 250 mM NaCl (TLR5) or 500 mM NaCl (TLR8), 1.5 mM TCEP, 15% glycerol, 0.005% NaN3, pH 8.3, 4°C; self-association, only an oligomeric fraction obtained; both purified. (In general: SEC sorts molecules by how far they enter the pores of the column.)

Test [2] addresses TIR domain of human Toll-like receptor 8 (TLR8TIR), released from the MBP hybrid by thrombin (human) (UniProt Q9NR97). The test is described as above.

Take “TIR domain of human Toll-like receptor 5 (TLR5TIR), released from the MBP hybrid by thrombin (from UniProt O60602 691-836) (domain or fragment)”: the binding entry in test [1] is “binds”.

B1: TIR domain of human Toll-like receptor 8 (TLR8TIR), released from the MBP hybrid by thrombin (domain or fragment, UniProt Q9NR97 878-1022)
chain: TFYDAYISYDTKDASVTDWVINELRYHLEESRDKNVLLCLEERDWDPGLAIIDNLMQSINQSKKTVFVLTKKYAKSWNFKTAFYLALQRLMDENMDVIIFILLEPVLQHSQYLRLRQRICKSSILQWPDNPKAEGLFWQTLRNVV
As to B1, the binding entry in test [2] is listed as “binds”.
